In doi:10.1101/2024.11.18.623856:
No constants are given. Whether binding was seen depends on the method and setting. In cells and extracts the contact can be indirect. Some entries that bind do so weakly or less than the wild type.

The chains behind the UniProt entries cited, without tags or fusion partners. Residues count along the entry.
UniProt Q14833, residues 33-912: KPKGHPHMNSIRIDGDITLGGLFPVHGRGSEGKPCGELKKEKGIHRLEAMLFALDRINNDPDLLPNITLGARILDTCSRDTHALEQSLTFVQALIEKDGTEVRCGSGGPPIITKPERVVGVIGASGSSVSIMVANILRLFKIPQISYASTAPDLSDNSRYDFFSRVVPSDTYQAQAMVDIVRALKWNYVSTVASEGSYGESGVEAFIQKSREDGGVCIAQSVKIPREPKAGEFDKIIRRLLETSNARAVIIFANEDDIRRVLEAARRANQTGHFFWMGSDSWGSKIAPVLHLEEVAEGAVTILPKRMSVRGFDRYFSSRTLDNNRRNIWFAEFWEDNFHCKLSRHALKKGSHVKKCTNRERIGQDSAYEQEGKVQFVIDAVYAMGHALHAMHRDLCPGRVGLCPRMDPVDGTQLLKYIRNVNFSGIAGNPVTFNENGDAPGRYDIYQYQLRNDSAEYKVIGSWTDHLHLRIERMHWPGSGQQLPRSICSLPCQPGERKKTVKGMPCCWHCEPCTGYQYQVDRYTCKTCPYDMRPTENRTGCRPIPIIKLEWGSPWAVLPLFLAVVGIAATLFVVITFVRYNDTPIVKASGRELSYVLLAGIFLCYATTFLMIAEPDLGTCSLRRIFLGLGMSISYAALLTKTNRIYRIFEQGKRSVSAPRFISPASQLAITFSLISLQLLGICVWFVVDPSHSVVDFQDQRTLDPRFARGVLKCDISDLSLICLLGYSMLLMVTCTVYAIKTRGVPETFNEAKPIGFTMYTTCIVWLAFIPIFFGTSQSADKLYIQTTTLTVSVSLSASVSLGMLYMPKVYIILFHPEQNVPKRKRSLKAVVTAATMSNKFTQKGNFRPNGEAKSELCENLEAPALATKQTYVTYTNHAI
UniProt Q14831, residues 35-915: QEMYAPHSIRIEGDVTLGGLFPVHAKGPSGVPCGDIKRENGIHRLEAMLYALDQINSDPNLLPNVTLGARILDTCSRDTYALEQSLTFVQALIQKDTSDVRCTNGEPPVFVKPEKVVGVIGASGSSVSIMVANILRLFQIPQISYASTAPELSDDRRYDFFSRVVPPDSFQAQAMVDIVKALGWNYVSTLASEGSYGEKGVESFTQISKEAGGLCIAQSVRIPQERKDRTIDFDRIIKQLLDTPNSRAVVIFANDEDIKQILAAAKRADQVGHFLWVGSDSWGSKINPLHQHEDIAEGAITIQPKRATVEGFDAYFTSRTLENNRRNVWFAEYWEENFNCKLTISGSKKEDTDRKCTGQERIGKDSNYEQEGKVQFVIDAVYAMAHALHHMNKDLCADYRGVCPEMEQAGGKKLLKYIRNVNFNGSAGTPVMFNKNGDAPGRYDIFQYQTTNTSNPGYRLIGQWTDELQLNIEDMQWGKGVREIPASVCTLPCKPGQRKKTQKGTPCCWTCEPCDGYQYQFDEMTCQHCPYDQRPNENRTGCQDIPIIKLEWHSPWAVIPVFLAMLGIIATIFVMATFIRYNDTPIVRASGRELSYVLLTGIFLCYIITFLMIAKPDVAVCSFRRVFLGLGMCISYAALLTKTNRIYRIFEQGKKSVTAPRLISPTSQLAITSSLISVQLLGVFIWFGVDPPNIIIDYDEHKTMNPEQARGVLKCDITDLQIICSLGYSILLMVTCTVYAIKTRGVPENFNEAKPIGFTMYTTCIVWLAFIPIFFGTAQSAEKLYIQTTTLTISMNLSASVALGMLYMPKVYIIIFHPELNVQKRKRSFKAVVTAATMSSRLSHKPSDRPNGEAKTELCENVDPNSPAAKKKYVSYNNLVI
UniProt O00222, residues 34-908: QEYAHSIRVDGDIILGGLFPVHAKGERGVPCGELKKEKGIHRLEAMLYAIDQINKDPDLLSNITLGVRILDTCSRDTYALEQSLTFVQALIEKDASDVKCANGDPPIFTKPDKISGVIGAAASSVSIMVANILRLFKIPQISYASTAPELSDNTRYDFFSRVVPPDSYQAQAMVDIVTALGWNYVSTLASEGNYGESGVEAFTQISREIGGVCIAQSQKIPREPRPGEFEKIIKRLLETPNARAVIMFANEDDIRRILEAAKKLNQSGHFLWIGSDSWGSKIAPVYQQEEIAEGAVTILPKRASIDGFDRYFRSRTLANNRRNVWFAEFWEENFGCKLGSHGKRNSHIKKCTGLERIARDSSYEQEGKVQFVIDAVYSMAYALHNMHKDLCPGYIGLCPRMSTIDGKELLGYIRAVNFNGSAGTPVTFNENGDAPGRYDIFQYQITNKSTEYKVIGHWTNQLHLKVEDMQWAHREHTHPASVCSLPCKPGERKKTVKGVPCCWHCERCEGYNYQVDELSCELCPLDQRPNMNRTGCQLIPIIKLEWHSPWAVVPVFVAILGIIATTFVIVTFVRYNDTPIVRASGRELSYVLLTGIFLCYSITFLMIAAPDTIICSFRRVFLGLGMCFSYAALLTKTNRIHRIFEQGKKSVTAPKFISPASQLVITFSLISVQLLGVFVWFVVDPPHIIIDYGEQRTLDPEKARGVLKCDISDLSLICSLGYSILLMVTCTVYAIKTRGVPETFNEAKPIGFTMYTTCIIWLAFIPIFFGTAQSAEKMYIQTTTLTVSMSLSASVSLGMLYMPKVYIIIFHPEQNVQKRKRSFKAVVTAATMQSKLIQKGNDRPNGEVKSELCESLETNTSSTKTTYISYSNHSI
UniProt Q14832, residues 23-879: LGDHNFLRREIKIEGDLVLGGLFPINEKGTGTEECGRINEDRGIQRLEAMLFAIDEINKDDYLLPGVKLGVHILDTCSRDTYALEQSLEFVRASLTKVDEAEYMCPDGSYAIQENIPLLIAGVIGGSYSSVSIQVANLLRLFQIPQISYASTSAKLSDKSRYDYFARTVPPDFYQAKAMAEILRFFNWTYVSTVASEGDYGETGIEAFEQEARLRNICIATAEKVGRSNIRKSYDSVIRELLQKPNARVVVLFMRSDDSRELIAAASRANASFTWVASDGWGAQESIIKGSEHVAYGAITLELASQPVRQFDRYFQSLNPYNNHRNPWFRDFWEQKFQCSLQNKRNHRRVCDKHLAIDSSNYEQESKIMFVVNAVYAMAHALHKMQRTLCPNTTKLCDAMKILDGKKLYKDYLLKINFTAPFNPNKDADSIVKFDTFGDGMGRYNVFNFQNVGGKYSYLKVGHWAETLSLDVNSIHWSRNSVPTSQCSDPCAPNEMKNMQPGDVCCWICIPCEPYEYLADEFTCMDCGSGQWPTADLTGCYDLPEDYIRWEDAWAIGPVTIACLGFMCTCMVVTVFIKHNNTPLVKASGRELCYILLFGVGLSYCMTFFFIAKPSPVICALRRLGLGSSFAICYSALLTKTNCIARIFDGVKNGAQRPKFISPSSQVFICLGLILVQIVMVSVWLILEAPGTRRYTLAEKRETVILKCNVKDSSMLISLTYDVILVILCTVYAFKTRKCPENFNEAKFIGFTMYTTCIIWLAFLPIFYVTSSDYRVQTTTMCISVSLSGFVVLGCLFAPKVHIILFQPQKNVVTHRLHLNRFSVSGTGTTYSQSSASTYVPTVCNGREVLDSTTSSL

How the values were obtained:
Assay in all cases: split reporter
[1] = biological target: human metabotropic glutamate receptor 4, NanoBit tagged (human) (UniProt Q14833)
[2] = biological target: human metabotropic glutamate receptor 7, NanoBit tagged (human) (UniProt Q14831)
[3] = biological target: human metabotropic glutamate receptor 8, NanoBit tagged (human) (UniProt O00222)

binding [1]: binds
binding [2]: binds
binding [3]: binds
Substance: human metabotropic glutamate receptor 3, NanoBit tagged (from UniProt Q14832 23-879)
